Results deposited as PubChem BioAssay AID1259308 (NCATS, 2017)
Here is an unselected part of about 59,000 deposited reagents. About 1,510 of them (2.6%) were called active. 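Calls use total luciferase alone and ignore viability, so some active siRNAs may act by altering cell number.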 The numbers tell different reagents against one gene apart. Not all columns of the deposit are shown. Reagent sequences are not shown.

- Assay: 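Candidate targets for better recombinant protein yield in mammalian cells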 (primary screen)
- Cell system: human HEK293 embryonic kidney cells stably expressing firefly luciferase (HEK-CMV-Luc2-Hygro)
- Reagents: single siRNA against human genes, 0.8 pmol siRNA per well
- Timing: 72 h
- Measured: 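Reporter luminescence and viable-cell signal on separate replicate plates, given as percent of non-targeting control and median/MAD z-scores, plus per-cell luciferase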
- Direction: total luciferase, z-score: higher = more reporter protein produced
- Call rule: 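An siRNA counts as active if its total luciferase robust z-score exceeds 3; genes with two or more such siRNAs out of three were retested with fresh siRNAs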
- Meaning of the calls: active = raised luciferase; inactive = no rise

Depletion of RPL27 #1 came out at: total luciferase, z-score -2.38; inactive.
After knock-down of RPL27 #2 the results were total luciferase, z-score -2.18; inactive.
Knock-down of RPL27 #3 gave: total luciferase, z-score -2.66; inactive.
MRM2 #1 gave total luciferase, z-score 0.0445; inactive.
For MRM2 #2, the entry reads total luciferase, z-score 2.81; inactive.
Against MRM2 #3 the deposit lists total luciferase, z-score 0.516; inactive.
CENPO #1 gave total luciferase, z-score 3.57; active.
For CENPO #2 the deposit lists total luciferase, z-score -0.038; inactive.
After knock-down of CENPO #3, the screen gave total luciferase, z-score 0.909; inactive.
Against SHCBP1L #1, the entry reads total luciferase, z-score -0.259; inactive.
Knock-down of SHCBP1L #2 resulted in: total luciferase, z-score -0.57; inactive.
Silencing of SHCBP1L #3 came out at: total luciferase, z-score -0.275; inactive.
Depletion of H3C12 #1 resulted in: total luciferase, z-score -2.96; inactive.
H3C12 #2 scored total luciferase, z-score -0.487; inactive.
After knock-down of H3C12 #3, the screen gave total luciferase, z-score -2.77; inactive.
NGRN #1 gave total luciferase, z-score -0.877; inactive.
Depletion of NGRN #2 came out at: total luciferase, z-score 0.525; inactive.
NGRN #3 scored total luciferase, z-score -0.0166; inactive.
After knock-down of TPSD1 #1 the results were total luciferase, z-score 0.234; inactive.
For TPSD1 #2 the deposit lists total luciferase, z-score -0.717; inactive.
For TPSD1 #3 the deposit lists total luciferase, z-score 2.31; inactive.

Single entries from the entries so far:
Under “outcome”, NGRN #2 is entered as inactive
Value of TPSD1 #3 in “outcome”: inactive
